From publication PMC5008806
Results are given in words; binding and its absence hold for the method and conditions named. In cells and extracts the contact can be indirect. Some entries that bind do so weakly or less than the wild type. One block for each molecule: values may come before it.

By UniProt entry, the sequences of proteins in these tests, tags left out.
UniProt Q02248: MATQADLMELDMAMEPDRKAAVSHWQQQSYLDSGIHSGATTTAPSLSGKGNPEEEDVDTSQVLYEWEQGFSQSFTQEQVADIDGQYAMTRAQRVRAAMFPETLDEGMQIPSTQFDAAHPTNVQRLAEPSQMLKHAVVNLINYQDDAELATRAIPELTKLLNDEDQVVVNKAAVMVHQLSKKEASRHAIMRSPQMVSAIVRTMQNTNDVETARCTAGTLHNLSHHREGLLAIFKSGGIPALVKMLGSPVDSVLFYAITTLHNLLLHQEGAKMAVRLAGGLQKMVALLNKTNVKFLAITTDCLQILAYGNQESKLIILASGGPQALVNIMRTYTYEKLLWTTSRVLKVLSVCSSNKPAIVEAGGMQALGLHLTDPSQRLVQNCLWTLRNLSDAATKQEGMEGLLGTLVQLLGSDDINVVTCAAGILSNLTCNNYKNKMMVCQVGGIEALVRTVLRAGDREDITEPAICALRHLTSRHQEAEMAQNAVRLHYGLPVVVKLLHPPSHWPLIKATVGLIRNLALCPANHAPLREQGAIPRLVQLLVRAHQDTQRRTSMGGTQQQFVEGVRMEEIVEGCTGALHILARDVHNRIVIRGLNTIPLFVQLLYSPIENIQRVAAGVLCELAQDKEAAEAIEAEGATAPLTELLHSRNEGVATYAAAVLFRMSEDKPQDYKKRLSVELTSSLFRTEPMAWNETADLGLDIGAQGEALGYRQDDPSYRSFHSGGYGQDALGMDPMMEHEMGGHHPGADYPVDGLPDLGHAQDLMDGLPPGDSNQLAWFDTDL

Columns and labels:
[1] = target: T1, p120/σ-catenin (endogenous, mouse) (mouse (endogenous in sciatic nerve and Schwann cells)) (UniProt P30999); assay: co-IP; endogenous proteins in sciatic nerve lysates of Pmp22+/+ mice (P10, P15, 3 and 6 months old, by panel); IP with anti-E-cadherin, anti-p120/σ-catenin or anti-β-catenin antibody, control IgG; overnight at 4°C, protein G agarose beads; immunoblot
T1 sequence: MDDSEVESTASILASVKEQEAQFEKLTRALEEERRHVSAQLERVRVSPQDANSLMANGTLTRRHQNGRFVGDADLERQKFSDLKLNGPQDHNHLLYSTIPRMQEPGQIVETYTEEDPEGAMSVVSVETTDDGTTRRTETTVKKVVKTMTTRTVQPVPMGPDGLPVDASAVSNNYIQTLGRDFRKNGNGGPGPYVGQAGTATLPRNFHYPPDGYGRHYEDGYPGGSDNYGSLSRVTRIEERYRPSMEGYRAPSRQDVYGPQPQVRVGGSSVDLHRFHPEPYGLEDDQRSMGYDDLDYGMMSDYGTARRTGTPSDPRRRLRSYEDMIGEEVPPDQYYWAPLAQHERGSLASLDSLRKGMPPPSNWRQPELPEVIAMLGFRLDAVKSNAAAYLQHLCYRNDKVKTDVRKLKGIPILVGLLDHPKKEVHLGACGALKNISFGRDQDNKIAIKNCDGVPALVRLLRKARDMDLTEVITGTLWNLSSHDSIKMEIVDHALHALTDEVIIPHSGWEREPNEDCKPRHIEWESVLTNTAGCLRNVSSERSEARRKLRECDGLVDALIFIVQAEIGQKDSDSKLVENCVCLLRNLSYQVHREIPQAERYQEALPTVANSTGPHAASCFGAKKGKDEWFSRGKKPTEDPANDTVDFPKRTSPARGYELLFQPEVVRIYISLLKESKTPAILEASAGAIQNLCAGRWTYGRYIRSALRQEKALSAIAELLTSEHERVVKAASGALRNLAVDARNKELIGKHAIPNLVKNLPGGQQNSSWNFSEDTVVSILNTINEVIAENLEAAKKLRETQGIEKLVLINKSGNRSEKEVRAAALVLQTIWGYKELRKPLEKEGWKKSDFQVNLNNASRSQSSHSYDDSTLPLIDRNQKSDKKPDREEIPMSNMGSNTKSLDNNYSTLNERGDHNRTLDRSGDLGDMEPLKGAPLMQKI

[2] = target: β-catenin (endogenous, mouse) (mouse (endogenous in sciatic nerve and Schwann cells)) (UniProt Q02248); assay: co-IP; endogenous proteins in conditionally immortalized mouse Schwann cells (Pmp22+/+/SV40tg); β-catenin pulled down, E-cadherin and P120 detected
[3] = target: β-catenin (endogenous, mouse) (mouse (endogenous in sciatic nerve and Schwann cells)) (UniProt Q02248); assay: co-IP; endogenous proteins in sciatic nerve lysates of Pmp22+/+ mice (P10, P15, 3 and 6 months old, by panel); IP with anti-E-cadherin, anti-p120/σ-catenin or anti-β-catenin antibody, control IgG; overnight at 4°C, protein G agarose beads; immunoblot

binding [1]: binds
Molecule: β-catenin (endogenous, mouse) (from UniProt Q02248 1-781)

binding [3]: binds
B1: p120/σ-catenin (endogenous, mouse) (protein, UniProt P30999 1-938)
chain: T1 sequence
binding [2]: binds
